The results in this text go back to patent US8440430, “Modified dicer polypeptide and methods of use thereof” (The Regents of the University of California).

The chains behind the UniProt entries cited, without tags or fusion partners. Residues count along the entry.
UniProt Q9UPY3, 605-1843: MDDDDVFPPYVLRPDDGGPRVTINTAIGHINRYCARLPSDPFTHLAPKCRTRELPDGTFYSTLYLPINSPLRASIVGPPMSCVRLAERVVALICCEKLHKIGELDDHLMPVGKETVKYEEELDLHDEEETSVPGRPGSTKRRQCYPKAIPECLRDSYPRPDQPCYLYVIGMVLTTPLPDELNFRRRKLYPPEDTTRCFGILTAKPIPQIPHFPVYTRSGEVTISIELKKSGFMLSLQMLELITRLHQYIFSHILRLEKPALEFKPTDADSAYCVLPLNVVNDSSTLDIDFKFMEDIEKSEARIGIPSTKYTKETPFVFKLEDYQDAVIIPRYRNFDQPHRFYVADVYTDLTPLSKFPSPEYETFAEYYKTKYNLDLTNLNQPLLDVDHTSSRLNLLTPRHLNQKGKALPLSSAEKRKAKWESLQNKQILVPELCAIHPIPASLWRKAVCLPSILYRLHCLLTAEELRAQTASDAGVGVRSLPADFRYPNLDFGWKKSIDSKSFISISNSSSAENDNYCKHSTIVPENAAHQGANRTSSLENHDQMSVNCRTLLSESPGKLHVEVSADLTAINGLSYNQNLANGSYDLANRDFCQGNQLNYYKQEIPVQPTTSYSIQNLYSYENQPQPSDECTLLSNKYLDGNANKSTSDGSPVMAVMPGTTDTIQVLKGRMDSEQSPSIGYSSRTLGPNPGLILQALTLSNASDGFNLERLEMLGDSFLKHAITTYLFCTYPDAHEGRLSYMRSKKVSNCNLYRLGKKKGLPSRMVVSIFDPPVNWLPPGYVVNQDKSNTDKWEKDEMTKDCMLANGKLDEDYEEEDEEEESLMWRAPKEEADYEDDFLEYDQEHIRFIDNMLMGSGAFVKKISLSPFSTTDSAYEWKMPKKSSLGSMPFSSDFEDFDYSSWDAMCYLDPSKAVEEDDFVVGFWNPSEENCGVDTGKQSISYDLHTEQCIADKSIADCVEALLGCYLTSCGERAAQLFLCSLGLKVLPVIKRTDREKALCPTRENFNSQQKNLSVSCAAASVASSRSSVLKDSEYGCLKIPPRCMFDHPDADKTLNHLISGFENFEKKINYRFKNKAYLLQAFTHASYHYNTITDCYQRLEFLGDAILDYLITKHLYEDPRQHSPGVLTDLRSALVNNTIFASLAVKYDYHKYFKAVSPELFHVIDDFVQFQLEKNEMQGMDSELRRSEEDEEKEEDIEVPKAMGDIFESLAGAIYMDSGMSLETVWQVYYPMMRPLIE
UniProt Q9UPY3, whole entry K70A: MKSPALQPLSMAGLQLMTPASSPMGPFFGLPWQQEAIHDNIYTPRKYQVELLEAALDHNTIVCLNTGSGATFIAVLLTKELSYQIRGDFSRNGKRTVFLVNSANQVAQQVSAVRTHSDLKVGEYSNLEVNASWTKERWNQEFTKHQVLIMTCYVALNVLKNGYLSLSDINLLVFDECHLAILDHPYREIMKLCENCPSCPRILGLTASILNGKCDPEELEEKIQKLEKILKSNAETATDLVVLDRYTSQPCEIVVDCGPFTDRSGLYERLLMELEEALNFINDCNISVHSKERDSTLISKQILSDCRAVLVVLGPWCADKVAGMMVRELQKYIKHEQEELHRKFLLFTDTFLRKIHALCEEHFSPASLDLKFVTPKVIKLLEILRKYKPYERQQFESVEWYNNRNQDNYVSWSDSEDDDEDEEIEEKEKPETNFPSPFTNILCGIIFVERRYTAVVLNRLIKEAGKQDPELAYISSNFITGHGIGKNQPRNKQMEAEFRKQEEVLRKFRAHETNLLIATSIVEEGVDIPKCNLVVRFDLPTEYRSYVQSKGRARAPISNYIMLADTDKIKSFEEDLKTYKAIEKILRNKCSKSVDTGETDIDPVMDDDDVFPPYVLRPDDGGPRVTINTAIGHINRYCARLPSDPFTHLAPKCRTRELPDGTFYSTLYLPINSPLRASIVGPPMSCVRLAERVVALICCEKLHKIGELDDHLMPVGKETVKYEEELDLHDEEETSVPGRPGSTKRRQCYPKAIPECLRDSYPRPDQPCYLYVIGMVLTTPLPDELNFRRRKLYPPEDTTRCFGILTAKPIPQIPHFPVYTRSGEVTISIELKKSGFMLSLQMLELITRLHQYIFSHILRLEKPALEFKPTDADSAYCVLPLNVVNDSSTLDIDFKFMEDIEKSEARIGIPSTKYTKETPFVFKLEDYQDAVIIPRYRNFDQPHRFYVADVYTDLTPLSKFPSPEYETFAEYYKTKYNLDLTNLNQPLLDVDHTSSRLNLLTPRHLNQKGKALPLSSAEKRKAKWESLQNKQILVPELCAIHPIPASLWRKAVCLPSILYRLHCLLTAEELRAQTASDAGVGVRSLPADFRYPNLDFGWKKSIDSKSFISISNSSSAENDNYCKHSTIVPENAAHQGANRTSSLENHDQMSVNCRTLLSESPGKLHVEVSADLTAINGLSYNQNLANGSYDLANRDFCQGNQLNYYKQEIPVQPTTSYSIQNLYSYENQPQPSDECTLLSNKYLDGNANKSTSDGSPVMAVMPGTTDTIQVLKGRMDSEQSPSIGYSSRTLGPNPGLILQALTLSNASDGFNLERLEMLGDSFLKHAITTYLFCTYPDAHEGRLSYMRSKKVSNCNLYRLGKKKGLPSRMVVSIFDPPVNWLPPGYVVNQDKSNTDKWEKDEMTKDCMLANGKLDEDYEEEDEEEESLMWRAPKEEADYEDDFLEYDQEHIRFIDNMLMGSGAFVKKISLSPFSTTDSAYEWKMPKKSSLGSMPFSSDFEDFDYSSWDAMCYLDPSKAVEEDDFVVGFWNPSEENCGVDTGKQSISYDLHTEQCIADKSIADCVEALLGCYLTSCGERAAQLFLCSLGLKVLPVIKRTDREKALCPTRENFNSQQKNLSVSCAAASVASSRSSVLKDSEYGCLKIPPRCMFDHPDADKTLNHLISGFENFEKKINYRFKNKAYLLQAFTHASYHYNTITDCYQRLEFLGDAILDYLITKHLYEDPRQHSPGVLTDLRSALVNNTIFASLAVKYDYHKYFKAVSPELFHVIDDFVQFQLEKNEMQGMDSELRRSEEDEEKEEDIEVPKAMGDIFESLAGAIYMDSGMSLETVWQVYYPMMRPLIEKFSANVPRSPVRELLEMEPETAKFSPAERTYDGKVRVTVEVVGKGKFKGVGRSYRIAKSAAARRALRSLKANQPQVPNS
UniProt Q9UPY3, 1-1843, stated change not applied: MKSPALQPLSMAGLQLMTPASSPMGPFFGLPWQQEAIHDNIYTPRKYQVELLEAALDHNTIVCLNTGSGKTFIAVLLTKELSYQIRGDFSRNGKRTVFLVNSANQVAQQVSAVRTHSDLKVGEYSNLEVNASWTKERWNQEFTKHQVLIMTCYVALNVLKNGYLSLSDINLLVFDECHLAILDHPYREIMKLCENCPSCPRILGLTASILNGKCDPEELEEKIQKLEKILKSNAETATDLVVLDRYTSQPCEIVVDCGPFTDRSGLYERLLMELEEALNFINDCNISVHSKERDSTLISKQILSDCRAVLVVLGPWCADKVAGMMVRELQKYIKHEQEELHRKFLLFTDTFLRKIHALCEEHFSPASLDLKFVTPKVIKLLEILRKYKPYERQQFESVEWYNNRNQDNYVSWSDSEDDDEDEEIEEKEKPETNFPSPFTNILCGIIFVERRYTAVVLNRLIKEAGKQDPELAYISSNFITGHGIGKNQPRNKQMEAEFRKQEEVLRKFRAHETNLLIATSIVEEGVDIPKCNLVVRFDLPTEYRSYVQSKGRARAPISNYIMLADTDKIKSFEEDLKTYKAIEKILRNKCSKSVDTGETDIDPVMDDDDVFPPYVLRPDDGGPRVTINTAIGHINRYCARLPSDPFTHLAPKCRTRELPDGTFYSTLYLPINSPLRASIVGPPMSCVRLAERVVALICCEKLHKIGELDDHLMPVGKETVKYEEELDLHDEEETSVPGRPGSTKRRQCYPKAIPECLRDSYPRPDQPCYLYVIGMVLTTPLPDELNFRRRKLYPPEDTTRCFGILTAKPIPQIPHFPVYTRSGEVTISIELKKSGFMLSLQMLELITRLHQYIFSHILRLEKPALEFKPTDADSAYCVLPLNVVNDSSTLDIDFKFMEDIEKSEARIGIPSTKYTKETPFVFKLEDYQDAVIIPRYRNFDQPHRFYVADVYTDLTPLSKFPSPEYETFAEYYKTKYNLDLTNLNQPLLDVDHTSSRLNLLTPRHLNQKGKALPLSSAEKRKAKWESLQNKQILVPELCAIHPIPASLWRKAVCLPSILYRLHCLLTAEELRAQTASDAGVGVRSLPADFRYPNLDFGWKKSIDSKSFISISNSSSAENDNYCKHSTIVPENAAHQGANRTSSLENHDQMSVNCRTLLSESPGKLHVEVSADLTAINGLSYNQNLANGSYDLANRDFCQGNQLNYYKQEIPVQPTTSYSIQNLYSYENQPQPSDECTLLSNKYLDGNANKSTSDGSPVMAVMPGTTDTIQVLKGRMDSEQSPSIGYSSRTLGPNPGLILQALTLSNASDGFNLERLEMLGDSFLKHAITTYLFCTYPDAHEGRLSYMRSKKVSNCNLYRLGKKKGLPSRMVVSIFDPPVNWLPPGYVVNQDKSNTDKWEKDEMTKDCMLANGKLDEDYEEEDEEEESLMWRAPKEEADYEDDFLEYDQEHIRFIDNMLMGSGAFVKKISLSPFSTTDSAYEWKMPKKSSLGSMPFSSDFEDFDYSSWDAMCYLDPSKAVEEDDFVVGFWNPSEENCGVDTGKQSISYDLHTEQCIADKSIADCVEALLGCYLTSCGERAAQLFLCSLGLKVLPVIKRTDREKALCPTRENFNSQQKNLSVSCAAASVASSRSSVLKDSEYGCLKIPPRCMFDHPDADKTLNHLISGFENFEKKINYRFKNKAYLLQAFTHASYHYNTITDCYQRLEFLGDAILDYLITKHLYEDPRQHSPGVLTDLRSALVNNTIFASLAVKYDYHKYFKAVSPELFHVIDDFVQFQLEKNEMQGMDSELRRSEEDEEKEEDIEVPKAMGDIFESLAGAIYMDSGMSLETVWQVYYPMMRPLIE
UniProt Q9UPY3, 605-1922, stated change not applied: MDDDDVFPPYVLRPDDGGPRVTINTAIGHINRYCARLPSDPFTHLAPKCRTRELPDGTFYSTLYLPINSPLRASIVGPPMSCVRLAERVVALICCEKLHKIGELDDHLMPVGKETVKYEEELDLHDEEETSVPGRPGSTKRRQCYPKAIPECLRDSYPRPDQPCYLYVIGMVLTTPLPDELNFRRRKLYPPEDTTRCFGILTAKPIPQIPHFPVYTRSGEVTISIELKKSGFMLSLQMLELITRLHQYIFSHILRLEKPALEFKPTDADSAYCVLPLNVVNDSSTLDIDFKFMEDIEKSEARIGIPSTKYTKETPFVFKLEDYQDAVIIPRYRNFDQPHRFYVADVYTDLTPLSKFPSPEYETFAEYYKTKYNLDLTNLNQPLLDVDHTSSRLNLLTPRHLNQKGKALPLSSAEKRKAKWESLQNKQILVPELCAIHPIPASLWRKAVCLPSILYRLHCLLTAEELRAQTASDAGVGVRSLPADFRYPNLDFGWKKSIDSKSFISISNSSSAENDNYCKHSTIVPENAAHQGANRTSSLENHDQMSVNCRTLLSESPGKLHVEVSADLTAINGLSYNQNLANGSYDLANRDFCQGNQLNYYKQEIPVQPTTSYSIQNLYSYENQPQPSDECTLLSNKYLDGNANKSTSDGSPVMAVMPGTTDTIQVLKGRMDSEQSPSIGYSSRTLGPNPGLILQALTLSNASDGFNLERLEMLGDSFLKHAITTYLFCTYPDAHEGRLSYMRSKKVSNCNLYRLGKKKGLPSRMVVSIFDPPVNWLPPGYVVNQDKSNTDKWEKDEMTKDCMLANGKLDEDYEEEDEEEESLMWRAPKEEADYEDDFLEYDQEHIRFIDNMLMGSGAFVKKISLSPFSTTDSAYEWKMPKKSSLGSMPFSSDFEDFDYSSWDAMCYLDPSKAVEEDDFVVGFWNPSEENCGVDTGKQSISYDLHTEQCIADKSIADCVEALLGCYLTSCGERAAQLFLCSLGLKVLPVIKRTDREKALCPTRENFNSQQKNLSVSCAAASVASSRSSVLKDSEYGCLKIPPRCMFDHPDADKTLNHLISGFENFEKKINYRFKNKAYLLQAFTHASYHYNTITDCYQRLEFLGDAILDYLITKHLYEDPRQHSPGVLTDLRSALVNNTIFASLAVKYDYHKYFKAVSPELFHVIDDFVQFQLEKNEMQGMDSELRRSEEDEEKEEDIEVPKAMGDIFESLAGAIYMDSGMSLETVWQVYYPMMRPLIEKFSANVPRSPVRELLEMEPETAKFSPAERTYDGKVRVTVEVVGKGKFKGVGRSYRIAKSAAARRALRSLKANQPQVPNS

For part of these data: Weaker means in comparison with the reference protein, sequence or condition of that experiment.

Data set [1] has as its target 2DD human Dicer (lacks DExD/H-box domain and dsRBD) del1-604, del1844-1922 (Homo sapiens) (UniProt Q9UPY3). Description: enzyme reaction in vitro. The conditions noted are these: active in dicing assay, 60 nM protein; 1.5 mM MgCl2; purified recombinant protein; label: 5'-32P on one strand.
The subject of data set [2] is human Dicer-TRBP complex (Homo sapiens). Briefly: enzyme reaction in vitro. As to conditions: multiple turnover, 5 nM complex, 100 nM dsRNA; cleavage rate increased vs full-length Dicer alone, less than ΔDEAD; purified recombinant protein; label: 5'-32P on one strand.
In data set [3] the target is hWalker human Dicer (K70A) (Homo sapiens) (UniProt Q9UPY3). Description: enzyme reaction in vitro. The conditions noted are these: single-turnover cleavage significantly faster than wild-type; 1.5 mM MgCl2; purified recombinant protein; label: 5'-32P on one strand.
The target of data set [4] is ΔdsRBD human Dicer del1844-1922 (Homo sapiens) (UniProt Q9UPY3). Briefly: enzyme reaction in vitro. The conditions noted are these: single-turnover cleavage rate significantly reduced vs wild-type; 1.5 mM MgCl2; purified recombinant protein; label: 5'-32P on one strand.
Data set [5] has as its target ΔDUF human Dicer (lacks DUF283) del630-709 (Homo sapiens) (UniProt Q9UPY3). Briefly: enzyme reaction in vitro. The conditions noted are these: single-turnover cleavage rate significantly reduced vs wild-type; 1.5 mM MgCl2; purified recombinant protein; label: 5'-32P on one strand.
Data set [6] deals with 2DD human Dicer (lacks DExD/H-box domain and dsRBD) del1-604, del1844-1922 (Homo sapiens) (UniProt Q9UPY3). Description: filter binding. The conditions noted are these: 5 mM EDTA, purified recombinant protein.
The target in data set [7] is wild-type human Dicer (flhDcr) (Homo sapiens) (UniProt Q9UPY3). Briefly: enzyme reaction in vitro. The conditions noted are these: single turnover; in general pre-let7 cleaved 6-18 fold more rapidly than 37ab; 1.5 mM MgCl2; purified recombinant protein; label: 5'-32P.
Data set [8] has as its target ΔDEAD human Dicer (lacks DExD/H-box domain, aa 1-604 deleted) (Homo sapiens) (UniProt Q9UPY3). Briefly: enzyme reaction in vitro. As to conditions: single turnover; no pronounced stimulation vs wild-type; 1.5 mM MgCl2; purified recombinant protein; label: 5'-32P.

“UGAGGUAGUAGGUUGUAUAGUUUGAAAGUUCACGAUU / UCGUGAACUUUCAAACUAUACAACCUACUACCUCAUU [37ab duplex RNA]”: the “activity on this sequence” value in data set [1], in data set [2], in data set [3], in data set [4] and in data set [5] was “active” each time. In data set [6] (label: 5'-32P on one strand), the binding result is listed as “binds more weakly”.
As for “UGAGGUAGUAGGUUGUAUAGUUUUAGGGUCACACCCACCACUGGGAGAUAACUAUACAAUCUACUGUCUUACC [pre-hlet-7 hairpin RNA]”, the “activity on this sequence” value in data set [7] and in data set [8] was “active” in each case. Besides, the binding result in data set [6] (label: 5'-32P) is listed as “binds more weakly”.
